In publication PMC10086757:
These are yes or no findings as the source states them, for the method shown. Binding seen in cells or lysates may run through a third protein. These calls come from enrichment with a bait or labelling near it, and not all partners need be listed.

By UniProt entry, the sequences of proteins in these tests, tags left out.
UniProt O60260: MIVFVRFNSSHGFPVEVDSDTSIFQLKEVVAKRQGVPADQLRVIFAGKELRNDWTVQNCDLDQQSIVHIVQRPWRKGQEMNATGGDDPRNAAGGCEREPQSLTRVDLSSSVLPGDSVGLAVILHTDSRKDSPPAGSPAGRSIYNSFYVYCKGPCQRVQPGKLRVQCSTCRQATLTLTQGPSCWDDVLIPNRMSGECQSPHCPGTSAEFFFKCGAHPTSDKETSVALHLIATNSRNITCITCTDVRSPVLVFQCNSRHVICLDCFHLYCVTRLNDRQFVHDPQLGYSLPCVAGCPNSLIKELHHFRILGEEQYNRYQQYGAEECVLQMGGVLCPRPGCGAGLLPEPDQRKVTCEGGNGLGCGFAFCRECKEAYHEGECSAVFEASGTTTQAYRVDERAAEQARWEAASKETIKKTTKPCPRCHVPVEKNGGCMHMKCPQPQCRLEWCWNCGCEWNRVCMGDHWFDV

Biological target: Flag-Parkin (UniProt O60260)
Assay: affinity purification with mass spectrometry; HCT116 transfected with Flag-Parkin or empty Flag vector for 24 h; anti-Flag IP with Protein A/G-Agarose beads, SDS-PAGE, in-gel trypsin digestion, LC-MS/MS

binding: binds
B1: Vitamin D receptor (VDR), endogenous in HCT116 (protein, UniProt P11473 1-427)
chain: MEAMAASTSLPDPGDFDRNVPRICGVCGDRATGFHFNAMTCEGCKGFFRRSMKRKALFTCPFNGDCRITKDNRRHCQACRLKRCVDIGMMKEFILTDEEVQRKREMILKRKEEEALKDSLRPKLSEEQQRIIAILLDAHHKTYDPTYSDFCQFRPPVRVNDGGGSHPSRPNSRHTPSFSGDSSSSCSDHCITSSDMMDSSSFSNLDLSEEDSDDPSVTLELSQLSMLPHLADLVSYSIQKVIGFAKMIPGFRDLTSEDQIVLLKSSAIEVIMLRSNESFTMDDMSWTCGNQDYKYRVSDVTKAGHSLELIEPLIKFQVGLKKLNLHEEEHVLLMAICIVSPDRPGVQDAALIEAIQDRLSNTLQTYIRCRHPPPGSHLLYAKMIQKLADLRSLNEEHSKQYRCLSFQPECSMKLTPLVLEVFGNEIS
